{
  "sequences": {"note": "By UniProt entry, the sequences of proteins in these tests, tags left out. Where a name states a change or a piece, a line headed by the entry shows the natural chain unless it says otherwise.", "UniProt A0R561": "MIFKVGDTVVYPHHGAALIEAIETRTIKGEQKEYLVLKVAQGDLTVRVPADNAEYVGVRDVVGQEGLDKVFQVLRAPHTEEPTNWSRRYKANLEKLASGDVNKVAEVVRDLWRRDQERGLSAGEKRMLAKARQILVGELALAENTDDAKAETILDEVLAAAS", "UniProt A0R4G8": "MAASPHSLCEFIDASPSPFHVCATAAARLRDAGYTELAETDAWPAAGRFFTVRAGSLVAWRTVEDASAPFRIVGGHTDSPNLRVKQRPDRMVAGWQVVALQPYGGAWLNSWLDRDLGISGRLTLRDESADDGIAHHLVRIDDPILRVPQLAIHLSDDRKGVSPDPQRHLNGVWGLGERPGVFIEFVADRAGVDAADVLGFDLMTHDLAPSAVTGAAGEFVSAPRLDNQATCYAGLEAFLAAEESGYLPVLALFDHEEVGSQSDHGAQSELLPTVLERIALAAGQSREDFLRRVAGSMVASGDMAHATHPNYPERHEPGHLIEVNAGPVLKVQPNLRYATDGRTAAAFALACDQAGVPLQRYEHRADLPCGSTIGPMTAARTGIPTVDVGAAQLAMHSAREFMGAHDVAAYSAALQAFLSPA"},
  "source": "paper PMC12709188",
  "biological_target": "CarD–gFLAG (FLAG-tag sequence inserted into the M. smegmatis genome at the carD locus) (M. smegmatis) (UniProt A0R561)",
  "assay": "co-IP; FLAG pull-down: M. smegmatis lysates (2–4 mg protein; exponential and stationary phase; for RNAP-FLAG also after crsL knock-down) with M2 anti-FLAG resin 16–18 h at 4°C in 20 mM Tris–HCl pH 7.9, 150 mM KCl, 1 mM MgCl2; SDS–PAGE, silver stain, bands identified by MALDI-FTICR MS and/or western blot",
  "note": "No constants are given. Whether binding was seen depends on the method and setting. In cells and extracts the contact can be indirect. Binding calls can cover weak binding; strength is not graded here.",
  "data": [
    {"substance": "ApeB (MSMEG_5828), putative protease homologous of M. tuberculosis PepC (from UniProt A0R4G8)", "values": [
      {"measurement": "binding", "result": "binds"}
    ]}
  ]
}
